No constants are given. Whether binding was seen depends on the method and setting. In cells and extracts the contact can be indirect.
Target: T1, endogenous PEPD of UM-UC-3 cells, HCT116 cells and HCT116 sublines (human (endogenous in UM-UC-3 and HCT116)) (UniProt P12955)
T1 sequence: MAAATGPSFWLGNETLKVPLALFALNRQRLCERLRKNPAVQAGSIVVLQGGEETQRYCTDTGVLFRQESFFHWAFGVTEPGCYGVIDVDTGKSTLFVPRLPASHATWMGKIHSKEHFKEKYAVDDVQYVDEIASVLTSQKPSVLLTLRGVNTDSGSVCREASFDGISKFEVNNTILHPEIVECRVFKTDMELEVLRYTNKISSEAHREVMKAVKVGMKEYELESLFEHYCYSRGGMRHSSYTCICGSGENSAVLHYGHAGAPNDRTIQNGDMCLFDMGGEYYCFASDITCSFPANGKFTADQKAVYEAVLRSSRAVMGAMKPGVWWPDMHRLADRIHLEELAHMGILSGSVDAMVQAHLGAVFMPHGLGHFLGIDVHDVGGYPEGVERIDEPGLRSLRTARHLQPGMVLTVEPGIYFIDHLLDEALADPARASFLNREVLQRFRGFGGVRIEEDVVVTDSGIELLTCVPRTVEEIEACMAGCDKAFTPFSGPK
Experiment: co-IP; mitochondria-free lysates of UM-UC-3 cells treated with control or PEPD siRNA for 48 h; IP-IB

The chains behind the UniProt entries cited, without tags or fusion partners.
UniProt Q00987: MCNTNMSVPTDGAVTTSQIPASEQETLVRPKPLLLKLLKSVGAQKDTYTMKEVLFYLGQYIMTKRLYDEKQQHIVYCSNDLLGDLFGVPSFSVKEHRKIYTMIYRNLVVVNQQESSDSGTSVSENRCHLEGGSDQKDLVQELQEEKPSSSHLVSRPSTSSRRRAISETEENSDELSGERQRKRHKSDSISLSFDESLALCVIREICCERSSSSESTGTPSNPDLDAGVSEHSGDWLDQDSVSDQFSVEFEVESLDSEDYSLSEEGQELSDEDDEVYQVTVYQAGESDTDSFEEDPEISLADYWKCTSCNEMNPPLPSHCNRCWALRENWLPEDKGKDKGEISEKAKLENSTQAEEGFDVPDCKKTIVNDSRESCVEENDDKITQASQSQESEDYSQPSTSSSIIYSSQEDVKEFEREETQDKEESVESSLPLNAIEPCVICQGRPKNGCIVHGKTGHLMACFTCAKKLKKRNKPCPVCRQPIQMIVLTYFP

- binding: no binding
Substance: MDM2, endogenous (from UniProt Q00987 1-491) (enzyme)

Reference: PMC5727116
